We go through two substances from patent US20190337989A1 (priority 2016, published 2019).

The nature of this data set: general procedure: Fmoc solid-phase peptide synthesis; H-Asp(OtBu)-Trt(2-Cl) resin (antigen peptide); NH2-SAL-Trt(2-Cl)-Resin (MAP core).

Core-[PEG-STQKAID]4 showed a conjugation yield (conjugation step) of 55%.

Regarding N3-PEG-STQKAID, the isolated yield (whole synthesis, scale of the general procedure 1 mmol) is recorded as 56%.
